Drawing on US20260042829A1, this text covers binding for two molecules.

These are yes or no findings as the source states them, for the method shown. Some binding calls cover weakened binding; strength is not graded here.

The test deals with T1, recombinant Immuno-moodulin (recombinant Imood) (mouse) (UniProt Q8C5P7).
T1 sequence: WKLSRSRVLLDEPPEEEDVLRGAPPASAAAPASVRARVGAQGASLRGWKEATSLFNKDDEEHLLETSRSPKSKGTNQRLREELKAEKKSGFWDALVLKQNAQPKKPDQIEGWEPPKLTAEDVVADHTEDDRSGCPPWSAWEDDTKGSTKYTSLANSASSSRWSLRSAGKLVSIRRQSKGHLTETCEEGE
Briefly: hybridoma supernatants screened by western blot and immunoprecipitation of recombinant Imood (FIG. 6). On the technique in general: In western blotting, separated proteins are transferred to a membrane and probed.

B1: monoclonal anti-Imood antibody 1B10 (antibody, V domains shown)
VH: AVQLVESGGGLVQPEESLKISCAASGITFSNVAMYWVRQAPGKGLEWVARIRSKANNYATYYADSVKGRFTISRDDSKSMVYLQMDNLKTEDTAMYYCSAWVIVPLYFDYWGQGVMVTVSS
VL: DIVMTQAPLSVSVTPGESASISCRSSKSLLSSKGITSLYWYLQRPGKSPQLLIYQMSNLASGVPDRFSSSGSETDFTLKISKVEAEDVGVYYCGHRLQTPFTFGSGTKLEIK
For the molecule B1, the binding result is “binds”.

B2: monoclonal anti-Imood antibody 1C4 (antibody, V domains shown)
VH: EVQLVESGGGLVQPGRSLKLSCAASGFTFSDYNMAWVRQAPKRGLEWVATIIYDGDRTYYRDSVKGRFTISRDKAKTTLYLQMDSLRSEDTATYYCATGLAYWGQGTLVTVSS
VL: DIVMTQTPSSQAVSPGEKVTMSCKSSQSLLYSENKKNYLAWYQQKPGQSPKLLIYWASTRESGVPDRFIGSGSGTDFTLTISSVQAEDLAVYYCQQYYNFPSTFGTGTTLELK
For B2, the binding entry is recorded as “binds”.
